PubChem BioAssay AID1224826 – NIAID – 2016

Purpose: 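Regulators of Tlr4 signalling leading to Tnf-alpha expression in macrophages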 (primary screen)
Cell system: RAW264.7 G9 macrophages from mouse bearing reporters for p65 (GFP) and the Tnf promoter (mCherry)
Knock-down reagent: siRNA pool against mouse genes, 100 nM
Duration: 16 h of LPS stimulation, after 2 days of siRNA transfection
Challenge: bacterial lipopolysaccharide (Salmonella minnesota R595), 10 ng/ml
Measured: 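Nuclear mCherry signal of the Tnf promoter reporter measured by imaging after background removal, scaled to each plate median and turned into robust z-scores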
Scale: Tnf reporter robust z-score: higher = stronger Tnf promoter reporter signal after LPS
Call rule: 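Called active when robust z-score is at most -1.3, matching the median of the Tlr4 knock-down control, or over 3; control wells and wells with under 50 cells never active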
Calls: active = Tnf reporter clearly lowered or raised; inactive = no clear change in Tnf reporter
Here is a random part of about 17,000 deposited reagents. In the full data, about 1,110 (6.6%) were called active. 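Active means lowered or raised reporter signal; replicate intensities are raw and not normalised per plate.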 Reagents against one gene are numbered here. Not all columns of the deposit are shown.

For Ifi204, the values are Tnf reporter robust z-score -1.7; fewer than 50 cells in well enough cells in well; active.
With knock-down of Rrp12, the record shows Tnf reporter robust z-score -0.23; fewer than 50 cells in well enough cells in well; inactive.
After knock-down of Tfb2m the results were Tnf reporter robust z-score -0.57; fewer than 50 cells in well enough cells in well; inactive.
For Scmh1 the deposit lists Tnf reporter robust z-score 0.06; fewer than 50 cells in well enough cells in well; inactive.
For Prb1b #1, the values are Tnf reporter robust z-score 0.59; fewer than 50 cells in well enough cells in well; inactive.
Prb1b #2 scored Tnf reporter robust z-score 0.88; fewer than 50 cells in well enough cells in well; inactive.
Against Rec8 the deposit lists Tnf reporter robust z-score -0.25; fewer than 50 cells in well enough cells in well; inactive.
Against Or4p23, the values are Tnf reporter robust z-score -0.62; fewer than 50 cells in well enough cells in well; inactive.
With knock-down of Reg2 the results were Tnf reporter robust z-score -0.38; fewer than 50 cells in well enough cells in well; inactive.
Against Snw1, the entry reads Tnf reporter robust z-score 1.89; fewer than 50 cells in well enough cells in well; inactive.
After knock-down of Commd1, the record shows Tnf reporter robust z-score -0.82; fewer than 50 cells in well enough cells in well; inactive.
With knock-down of Grpr the results were Tnf reporter robust z-score -1.11; fewer than 50 cells in well enough cells in well; inactive.
Depletion of 9330175E14Rik #1 resulted in: Tnf reporter robust z-score -0.56; fewer than 50 cells in well enough cells in well; inactive.
After knock-down of 9330175E14Rik #2 the results were Tnf reporter robust z-score -0.9; fewer than 50 cells in well enough cells in well; inactive.
For Or1o3, the values are Tnf reporter robust z-score -0.35; fewer than 50 cells in well enough cells in well; inactive.
After knock-down of Prss16, the screen gave Tnf reporter robust z-score -0.81; fewer than 50 cells in well enough cells in well; inactive.
Aff2 gave Tnf reporter robust z-score -0.74; fewer than 50 cells in well enough cells in well; inactive.
Arfgef2 showed fewer than 50 cells in well fewer than 50 cells per well; well left out of calls; inactive.
Against Adra2b, the entry reads Tnf reporter robust z-score -0.21; fewer than 50 cells in well enough cells in well; inactive.
After knock-down of Tsc22d3, the screen gave Tnf reporter robust z-score 0.31; fewer than 50 cells in well enough cells in well; inactive.
Knock-down of Tmem106a gave: Tnf reporter robust z-score -0.61; fewer than 50 cells in well enough cells in well; inactive.
